{"source": "PubChem BioAssay AID1053208 – Peter MacCallum Cancer Centre – 2014", "test": "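Find knock-downs that sensitise mouse osteosarcoma cells to doxorubicin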 (primary screen)", "cell system": "mouse osteosarcoma cells, early-passage culture from an engineered mouse model of fibroblastic bone tumour", "reagent": "siRNA pool against mouse genes, 40 nM", "time to read-out": "about 120 h (48 h before drug, then 72 h with drug)", "treatment": "doxorubicin 100 nM for 72 h, roughly 30-40% inhibitory dose", "read-out": "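Viability read as ATP luminescence after 72 h of 100 nM doxorubicin or none, duplicate wells averaged, scaled to non-targeting siRNA, then expressed as robust z-scores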", "reading the numbers": "viability z-score with doxorubicin: higher = more viable cells under doxorubicin; viability z-score without drug: higher = more viable cells with knock-down alone", "active means": "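Called active if knock-down leaves viability unchanged without drug (z within -2 to 2) but lowers it with doxorubicin (z at or under -2)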", "note": "The whole screen tested about 17,000 reagents; below is an unselected part. Of all reagents, 788 (4.7%) got an active call. 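Calls rest on z-score classes alone; an extra cut-off of viability at most 70% of control was not applied to them.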 Further read-outs or replicates are left out here."}
{"gene symbol":"C1galt1","combined z-score class":"no change with or without drug","viability z-score with doxorubicin":0.67,"viability z-score without drug":-0.17,"call":"inactive"}
{"gene symbol":"Txndc11","combined z-score class":"high cell count with doxorubicin only","viability z-score with doxorubicin":2.25,"viability z-score without drug":0.17,"call":"inactive"}
{"gene symbol":"Psd2","combined z-score class":"no change with or without drug","viability z-score with doxorubicin":-1.91,"viability z-score without drug":1.85,"call":"inactive"}
{"gene symbol":"Slc7a9","combined z-score class":"no change with or without drug","viability z-score with doxorubicin":1.01,"viability z-score without drug":1.18,"call":"inactive"}
{"gene symbol":"Tpx2","combined z-score class":"no change with or without drug","viability z-score with doxorubicin":-0.9,"viability z-score without drug":-0.84,"call":"inactive"}
{"gene symbol":"Aadacl4fm1","combined z-score class":"low cell count with doxorubicin only","viability z-score with doxorubicin":-2.02,"viability z-score without drug":-0.84,"call":"active"}
{"gene symbol":"Ccdc97","combined z-score class":"no change with or without drug","viability z-score with doxorubicin":1.69,"viability z-score without drug":-1.18,"call":"inactive"}
{"gene symbol":"Lamp2","combined z-score class":"no change with or without drug","viability z-score with doxorubicin":0.56,"viability z-score without drug":-0.84,"call":"inactive"}
{"gene symbol":"Atp6v1c1","combined z-score class":"no change with or without drug","viability z-score with doxorubicin":0,"viability z-score without drug":0.17,"call":"inactive"}
{"gene symbol":"Grm3","combined z-score class":"no change with or without drug","viability z-score with doxorubicin":0.67,"viability z-score without drug":1.01,"call":"inactive"}
{"gene symbol":"Ctnnd1","combined z-score class":"no change with or without drug","viability z-score with doxorubicin":1.57,"viability z-score without drug":0.51,"call":"inactive"}
{"gene symbol":"Tnni2","combined z-score class":"no change with or without drug","viability z-score with doxorubicin":-0.56,"viability z-score without drug":-0.34,"call":"inactive"}
{"gene symbol":"Osbpl3","combined z-score class":"no change with or without drug","viability z-score with doxorubicin":-0.34,"viability z-score without drug":-0.84,"call":"inactive"}
{"gene symbol":"Prl3b1","combined z-score class":"high cell count without drug only","viability z-score with doxorubicin":-0.67,"viability z-score without drug":2.19,"call":"inactive"}
{"gene symbol":"Ube2m","combined z-score class":"no change with or without drug","viability z-score with doxorubicin":0.34,"viability z-score without drug":-0.67,"call":"inactive"}
{"gene symbol":"Ext2","combined z-score class":"no change with or without drug","viability z-score with doxorubicin":-0.67,"viability z-score without drug":-0.17,"call":"inactive"}
{"gene symbol":"Pfn1","combined z-score class":"no change with or without drug","viability z-score with doxorubicin":0.56,"viability z-score without drug":1.69,"call":"inactive"}
{"gene symbol":"Rai2","combined z-score class":"no change with or without drug","viability z-score with doxorubicin":1.35,"viability z-score without drug":-0.17,"call":"inactive"}
{"gene symbol":"Or11g25","combined z-score class":"no change with or without drug","viability z-score with doxorubicin":0.67,"viability z-score without drug":1.69,"call":"inactive"}
{"gene symbol":"Krt81","combined z-score class":"no change with or without drug","viability z-score with doxorubicin":0.34,"viability z-score without drug":1.85,"call":"inactive"}
{"gene symbol":"Casq2","combined z-score class":"high cell count with doxorubicin only","viability z-score with doxorubicin":2.25,"viability z-score without drug":1.35,"call":"inactive"}
{"gene symbol":"Zscan12","combined z-score class":"high cell count with and without drug","viability z-score with doxorubicin":2.14,"viability z-score without drug":3.04,"call":"inactive"}
{"gene symbol":"Emp1","combined z-score class":"high cell count with and without drug","viability z-score with doxorubicin":2.02,"viability z-score without drug":2.19,"call":"inactive"}
{"gene symbol":"Cd163","combined z-score class":"high cell count without drug only","viability z-score with doxorubicin":1.46,"viability z-score without drug":2.87,"call":"inactive"}
{"gene symbol":"Emilin1","combined z-score class":"no change with or without drug","viability z-score with doxorubicin":0.79,"viability z-score without drug":1.18,"call":"inactive"}
{"gene symbol":"Faap24","combined z-score class":"low cell count without drug only","viability z-score with doxorubicin":0.22,"viability z-score without drug":-3.88,"call":"inactive"}
{"gene symbol":"Ebag9","combined z-score class":"no change with or without drug","viability z-score with doxorubicin":1.8,"viability z-score without drug":0,"call":"inactive"}
{"gene symbol":"Rab3b","combined z-score class":"no change with or without drug","viability z-score with doxorubicin":-1.12,"viability z-score without drug":1.01,"call":"inactive"}

Look-ups from the entries so far.
Rai2, viability z-score with doxorubicin = 1.35
Under “viability z-score with doxorubicin”, Or11g25 has 0.67
